PubChem BioAssay AID504834 (National Center for Advancing Translational Sciences (NCATS), 2011)
Among all 320,000 compounds or so, about 22,000 (6.9%) were called active. The shares of active, inactive and inconclusive entries below differ from those in the screen. Calls follow the shape of the dose curve; as a rule, active = well fitted inhibition curve with a large enough effect; inconclusive = small, poorly fitted or top-dose-only effect, or another doubt; inactive = no such curve, though single readings can be large or run the other way. Where the call is inconclusive, the potency comes from a doubtful curve fit.

experiment: Primary qHTS for delayed death inhibitors of the malarial parasite plastid, 96 hour incubation; details: P. falciparum luciferase reporter growth; series mostly up to 28.7 µM
How it was run: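 Two parasite generations (96 h, 37 C, 5% CO2) of compound exposure in infected erythrocytes (0.05% parasitemia, 2% hematocrit). Luciferase-reporter P. falciparum; decreased luminescence indicates inhibited growth, aimed at apicoplast-acting delayed death.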
Potency is read from the fitted curve at half-maximal effect.

Row | Compound | Potency
1 | CCOc1cccc(N(C(=O)C2COc3ccccc3O2)C(C(=O)NC2CCCCC2)c2ccc(O)cc2)c1 (centres undefined) | inactive
2 | COC(C(=O)C(O)C(C)O)C1Cc2cc3cc(OC4CC(OC5CC(O)C(OC)C(C)O5)C(OC(C)=O)C(C)O4)c(C)c(O)c3c(O)c2C(=O)C1OC1CC(OC2CC(OC3CC(C)(O)C(OC(C)=O)C(C)O3)C(O)C(C)O2)C(O)C(C)O1 (centres undefined) | inconclusive: 13.5 µM [inhibitor, partial curve, poor fit]
3 | Cc1cccc(-c2nnc(SCc3nc4ccccc4[nH]3)n2Cc2ccco2)c1 | inconclusive: 18.5 µM [inhibitor, single point]
4 | COc1cc(C(O)c2nc3ccccc3s2)cc(OC)c1OC (centres undefined) | inactive
5 | C[C@@H](NC(=O)c1nc[nH]c1C(=O)NC1CCN(C(=O)OC(C)(C)C)CC1)c1ccccc1 | inconclusive: 18.5 µM [inhibitor, single point]
6 | COCCn1c(SCC(=O)N2CCCCC2)nc2cccnc21 | inconclusive: 6.57 µM [inhibitor, partial curve, poor fit]
7 | CC(C)n1c(=S)[nH]c2ccccc2c1=O | inconclusive: 5.86 µM [inhibitor, partial curve]
8 | C[C@@]12C(=O)Nc3cc(F)ccc3C(=O)N1[C@H]1c3ccccc3OC[C@@H]1[C@@H]2c1ccccc1 | inconclusive: 18.5 µM [inhibitor, single point]
9 | CCC(C)(C(=O)NC1CCCC1)N(Cc1ccco1)C(=O)c1ccccn1 (centres undefined) | inconclusive: 18.5 µM [inhibitor, single point]
10 | O=C(CNC(=O)CNC(=O)c1ccc(Cl)cc1Cl)NCc1cccc(Cl)c1 | inactive
11 | O=C(COC(=O)c1ccc(C(F)(F)F)cc1)Nc1cccc(S(=O)(=O)N2CCCCC2)c1 | inconclusive: 11.7 µM [inhibitor, single point]
12 | Cc1cc(NC(=O)CSc2nc(-c3cccs3)cc(C(F)(F)F)n2)no1 | active: 1.85 µM
13 | CC(C)CNC(=S)NNC(=O)c1nn(C)cc1Cl | inconclusive: 14.7 µM [inhibitor, single point]
14 | COc1ccc(OC)c(NC(=O)c2c(NC(=O)CCC(=O)O)sc3c2CCCCC3)c1 | inconclusive: 5.86 µM [inhibitor, partial curve]
15 | O=C(CSc1n[nH]c(-c2ccccn2)n1)Nc1ccccc1F | active: 10.4 µM
16 | CCCCN(CC)C(=O)CSc1nc2c(sc(=S)n2-c2ccc(OCC)cc2)c(=O)[nH]1 | inconclusive: 10.4 µM [inhibitor, single point]
17 | CCOC(=O)N1CCN(C(=O)c2cn(C)c3ccc(S(=O)(=O)N(CC)CC)cc3c2=O)CC1 | inconclusive: 13.1 µM [inhibitor, partial curve]
18 | O=C1/C(=C\c2ccncc2)N2CCC1CC2 | inactive
19 | Nn1cc(-c2ccccc2)nc1SCC(=O)Nc1ccc(S(N)(=O)=O)cc1 | inactive
20 | CC(C)C(NS(=O)(=O)c1cccc2nsnc12)C(=O)N1CCCCC1 (centres undefined) | inactive
21 | O=C1C2C3C=CC(C3)C2C(=O)N1c1ccc(Cc2ccncc2)cc1 (centres undefined) | inactive
22 | Cc1cc(C)c2c(N)c(C(=O)Nc3ccccc3Br)sc2n1 | inconclusive: 9.28 µM [inhibitor, single point]

Row | Compound | Potency
23 | O=C(NCc1cccc(Cl)c1)c1ccc(CS(=O)Cc2ccccc2Cl)o1 (centres undefined) | inconclusive: 10.4 µM [inhibitor, single point]
24 | COc1ccc(C(C(=O)NCC2CCCO2)N(Cc2cccs2)C(=O)c2snc(C(N)=O)c2N)cc1OC (centres undefined) | inconclusive: 0.294 µM [inhibitor, partial curve, poor fit]
25 | Cc1ccc(C(C(=O)NCc2ccc(F)cc2)N(C(=O)c2csnn2)C2CC2)o1 (centres undefined) | inconclusive: 18.5 µM [inhibitor, single point]
26 | CN(Cc1ccccc1)S(=O)(=O)c1ccc(OCC(=O)NCc2ccncc2)cc1 | inactive
27 | COc1cccc(OC)c1C(=O)OCCCOC(=O)c1c(OC)cccc1OC | inconclusive: 10.4 µM [inhibitor, single point]
28 | CCOC(=O)N1CCC(N2C(=O)c3ccccc3C2Nc2cc(C)cc(C)c2)CC1 (centres undefined) | inconclusive: 3.29 µM [inhibitor, partial curve, poor fit]
29 | CCOC(=O)c1nc(Nc2ccc(OC)cc2)c2ccccc2n1 | inconclusive: 18.5 µM [inhibitor, single point]
30 | Cc1cc(C)c(S(=O)(=O)N(C)c2ccccc2)c(C)c1 | inconclusive: 0.465 µM [inhibitor, full curve, poor fit]
31 | COc1ccc(/C=N/NC(=O)c2cc(C34CC5CC(CC(C5)C3)C4)[nH]n2)cc1O | inconclusive: 13.1 µM [inhibitor, partial curve]
32 | CC(C)COP(=O)(CNC(=O)CN1C(=O)c2ccccc2S1(=O)=O)OCC(C)C | inactive
33 | CC1CC(C)CN(S(=O)(=O)c2ccc(C(=O)N3CC(C)OC(C)C3)cc2)C1 (centres undefined) | inconclusive: 3.7 µM [inhibitor, partial curve, poor fit]
34 | Cc1ccc(NCc2nnc(SCC(=O)N3CCc4ccccc43)n2C)cc1 | active: 4.65 µM
35 | Cc1ccc(S(=O)(=O)Nc2ccnc(-c3cccnc3)n2)cc1 | inactive
36 | CCN(CC)c1ccc(NC(=O)COc2ccc(C#N)cc2)cc1S(=O)(=O)Nc1ccc(OC)cc1 | active: 10.4 µM
37 | Cc1onc(-c2ccccc2Cl)c1C(=O)NCCN1Cc2ccccc2C1=O | inconclusive: 0.0037 µM [inhibitor, full curve, poor fit]
38 | COc1ccc(NC2=C(NCCO)C(=O)c3ccccc3C2=O)cc1 | inconclusive: 18.5 µM [inhibitor, single point]
39 | CCCCN(C)C(=O)CCCCn1c(=O)[nH]c2cc(OCC)c(OCC)cc2c1=O | inconclusive: 6.57 µM [inhibitor, partial curve, poor fit]
40 | COc1ccc(-c2ncc(CN3CCN(CCC(C)C)C(CCO)C3)cn2)cc1 (centres undefined) | inconclusive: 18.5 µM [inhibitor, single point]
41 | Oc1ccccc1N1CCN(CC(O)COCc2ccccc2Cl)CC1 (centres undefined) | inconclusive: 18.5 µM [inhibitor, single point]
42 | CCOC(=O)c1c(C=O)c(C)n(Cc2ccc(Cl)cc2)c1C | inconclusive: 16.5 µM [inhibitor, single point]
43 | CC1(C)C([N+](=O)[O-])C(c2ccc(Cl)cc2)NC(c2ccc(Cl)cc2)C1[N+](=O)[O-] (centres undefined) | inconclusive: 10.4 µM [inhibitor, single point]
44 | O=C(CSc1nnc(SCc2cccc3ccccc23)s1)c1ccc2c(c1)OCO2 | inconclusive: 0.185 µM [inhibitor, full curve, poor fit]

As a short view, part of the list above.
Row | Compound | Potency
42 | CCOC(=O)c1c(C=O)c(C)n(Cc2ccc(Cl)cc2)c1C | inconclusive: 16.5 µM [inhibitor, single point]
43 | CC1(C)C([N+](=O)[O-])C(c2ccc(Cl)cc2)NC(c2ccc(Cl)cc2)C1[N+](=O)[O-] (centres undefined) | inconclusive: 10.4 µM [inhibitor, single point]
44 | O=C(CSc1nnc(SCc2cccc3ccccc23)s1)c1ccc2c(c1)OCO2 | inconclusive: 0.185 µM [inhibitor, full curve, poor fit]

Further entries follow:

Row | Compound | Potency
45 | O=C(O)COc1ccc(S(=O)(=O)N2CCCC2)cc1 | inconclusive: 11.7 µM [inhibitor, single point]
46 | O=C(CSc1nnc(CNC(=O)c2ccccc2)o1)Nc1nccs1 | inactive
47 | Cc1cccc2nc(CSc3ccccc3C(=O)O)cn12 | inactive
48 | COc1ccc(-n2c(SCC#N)nc3ccccc3c2=O)cc1 | inconclusive: 11.7 µM [inhibitor, partial curve]
49 | Cc1cc(NC(=O)c2ccc(C)c([N+](=O)[O-])c2)no1 | inconclusive: 16.5 µM [inhibitor, partial curve, poor fit]
50 | CCOc1ccccc1Oc1coc2cc(OC(=O)N(C)C)ccc2c1=O | inactive
51 | Cc1ccc(S(=O)(=O)N(CC(=O)N/N=C/c2ccccc2C(=O)O)c2cc(Cl)cc(Cl)c2)cc1 | inconclusive: 11.7 µM [inhibitor, partial curve]
52 | Cn1c(=O)c(=O)n(C)c2cc(N3CCOCC3)c(NS(=O)(=O)c3ccc([N+](=O)[O-])cc3)cc21 | inconclusive: 6.57 µM [inhibitor, partial curve]
53 | CC(C)Cc1nc(N2CCN(C(=O)C(C)C)CC2)c(C#N)c2c1CCC2 | inconclusive: 13.1 µM [inhibitor, partial curve]
54 | Cc1cccc(N2CCN(C(=O)c3cccc(N4C(=O)C5CC=CC(C)C5C4=O)c3)CC2)c1C (centres undefined) | inconclusive: 18.5 µM [inhibitor, single point]
55 | Cc1[nH]c(C)c(S(=O)(=O)NCc2ccc(F)cc2)c1C(=O)N1CCCCC1 | inconclusive: 0.37 µM [inhibitor, partial curve, poor fit]
56 | Cc1ccc(NC(=O)CCC(=O)NNC(=O)c2ccccc2[N+](=O)[O-])c(C)c1 | inactive
57 | N#C/C(=C\c1ccc(OCc2ccccc2)cc1)C(=O)Nc1nc2c(s1)CCN(Cc1ccccc1)C2 | inconclusive: 8.28 µM [inhibitor, partial curve, poor fit]
58 | CCCCNc1c(-c2ccc(SC3CCCCC3)cc2)nc2ccccn12 | inconclusive: 16.5 µM [inhibitor, single point]
59 | CC1CCN(C(=S)c2cn(Cc3ccc(F)cc3)c3ccccc23)CC1 | inconclusive: 2.33 µM [inhibitor, partial curve, poor fit]
60 | Cc1[nH]c2ccccc2c1C(=O)CSc1ccc(Cl)cc1 | inconclusive: 10.4 µM [inhibitor, partial curve]
61 | CC(=O)Nc1ccc(S(=O)(=O)N2CCN(c3cc4c(cc3[N+](=O)[O-])n(C)c(=O)n4C)CC2)cc1 | inconclusive: 2.33 µM [inhibitor, full curve]
62 | N#Cc1cccnc1Nc1ccc(Cl)cc1 | inactive
63 | Cc1cccc(C)c1NC(=O)Nc1ccc2c(c1)OCO2 | inactive
64 | Cc1cc(=O)[nH]c(Nc2ccc(C(=O)OC(C)C)cc2)n1 | active: 2.62 µM
